Test results from patent US12116564B2, “Cells expressing recombinant growth factor receptors” (INSTIL BIO (UK) LIMITED, priority 2015, dated 2024).
Where a chain is given by its changes, count along the chain named. For at least one compound, name, drawing or mass did not settle the structure.

Key:
[1] = tested on: WT TpoR transduced primary human T-cells; format: cell-based
Description: Transduced primary human T-cells were incubated with the indicated concentrations of each drug and cells counted after three and five days
Following expansion cells were washed excessively to remove any exogenous IL2 and plated into 96-well U-bottom plates. Cells were supplemented with IL2 (Proleukin), recombinant human Tpo (Miltenyi Biotec) or Eltrombopag (Stratech Scientific, Suffolk, UK). At various time points thereafter cells were either stained with a 1:400 dilution of eFlor-450 fixable viability dye (eBioscience, UK) and counted directly from the wells using a MACSQuant Cytometer, or were stained with viability dye plus phycoerythrin conjugated anti-CD110 antibodies (Miltenyi Biotec, UK) and analysed using a MACSQuant cytomter. Cell viability and/or transduction level was then analysed using MACSQuantify software (Miltenyi Biotec, UK).
After three and five days the cells were stained with EFlor-450 Live/dead fixable viability dye and the cells in each well counted by flow cytometry.

[2] = tested on: WT TpoR engineered T-cells; test: Titration of Eltrombopag on WT TpoR engineered primary human T-cells; format: cell-based; conditions: three donors, 3 and 8 days
[3] = tested on: Ba/F3 cells transduced with WT TpoR; test: Enrichment of transduced Ba/F3 cells, WT TpoR; format: cell-based, murine; conditions: 0.5 μM Eltrombopag or 1.0 μM Tpo; days 3, 5 and 7
Description: (§1) FIG. 10—Analysis of rGFR variants in Ba/F3 cells. The IL3 dependent cell line Ba/F3 was transduced with the indicated rGFR variants and incubated in the presence of 1 μM Tpo, 0.5 μM Eltrombopag or 0.5 ng/ml IL3. Cells were taken at days 3, 5 and 7 stained with PE conjugated anti-CD110 antibodies and analysed using a MACSQuant analyser.
(§2) To determine whether the new variants generated were functionally active we transduced the IL3 dependent cell line Ba/F3 and incubated the cells with either IL-3, 0.5 μM Eltrombopag or 1.0 μM Tpo and measured the proportion of cells expressing the indicated TpoR at days 3, 5 and 7.

[4] = tested on: Ba/F3 cells transduced with F104S TpoR variant; test: Enrichment of transduced Ba/F3 cells, F104S TpoR; format: cell-based, murine; conditions: 0.5 μM Eltrombopag or 1.0 μM Tpo; days 3, 5 and 7
Description: as §1, §2

[5] = tested on: Ba/F3 cells transduced with TpoR-HGHR variant; test: Enrichment of transduced Ba/F3 cells, TpoR-HGHR; format: cell-based, murine; conditions: 0.5 μM Eltrombopag or 1.0 μM Tpo; days 3, 5 and 7
Description: as §1, §2

[6] = tested on: Ba/F3 cells transduced with TpoR-PrIR variant; test: Enrichment of transduced Ba/F3 cells, TpoR-PrIR; format: cell-based, murine; conditions: 0.5 μM Eltrombopag or 1.0 μM Tpo; days 3, 5 and 7; compared with the other variants
Description: as §1, §2

[7] = tested on: WT TpoR+ primary human T-cells; test: Enrichment of rGFR+ primary human T-cells, WT TpoR; format: cell-based; conditions: 1 μM Tpo, 0.5 μM Eltrombopag; days 3 and 5
[8] = tested on: F104S TpoR+ primary human T-cells; test: Enrichment of rGFR+ primary human T-cells, F104S TpoR; format: cell-based; conditions: 1 μM Tpo, 0.5 μM Eltrombopag; days 3 and 5
[9] = tested on: TpoR-HGHR primary human T-cells; test: Enrichment of rGFR+ primary human T-cells, TpoR-HGHR; format: cell-based; conditions: 0.5 μM Eltrombopag; days 3 and 5
[10] = tested on: TpoR-PrIR primary human T-cells; test: Enrichment of rGFR+ primary human T-cells, TpoR-PrIR; format: cell-based; conditions: 0.5 μM Eltrombopag; days 3 and 5
TpoR F104S = molecular target: T1, TpoR F104S (Homo sapiens, UniProt P40238, F104S); conditions: Fox et al 2010; cited from earlier work
T1 sequence (P40238 26-635 F104S): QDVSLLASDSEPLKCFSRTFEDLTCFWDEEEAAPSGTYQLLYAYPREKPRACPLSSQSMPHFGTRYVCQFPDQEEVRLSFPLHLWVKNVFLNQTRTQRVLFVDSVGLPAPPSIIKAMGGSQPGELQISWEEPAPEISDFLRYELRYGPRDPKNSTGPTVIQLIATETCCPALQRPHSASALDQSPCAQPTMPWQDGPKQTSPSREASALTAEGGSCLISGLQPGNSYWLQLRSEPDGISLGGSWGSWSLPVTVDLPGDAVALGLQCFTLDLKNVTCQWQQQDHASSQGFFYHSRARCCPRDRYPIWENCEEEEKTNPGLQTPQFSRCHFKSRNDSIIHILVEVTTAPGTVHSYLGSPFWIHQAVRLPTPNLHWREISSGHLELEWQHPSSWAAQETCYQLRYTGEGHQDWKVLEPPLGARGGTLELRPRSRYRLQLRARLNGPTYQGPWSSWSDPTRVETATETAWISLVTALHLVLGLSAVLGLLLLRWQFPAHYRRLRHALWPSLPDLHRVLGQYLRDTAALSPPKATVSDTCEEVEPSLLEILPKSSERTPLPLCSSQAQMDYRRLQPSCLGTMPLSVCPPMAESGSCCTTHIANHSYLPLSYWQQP

thrombopoietin receptor = molecular target: T2, thrombopoietin receptor (Homo sapiens, UniProt P40238); conditions: preclinical studies; activation of JAK-STAT signalling; cited from earlier work
T2 sequence (P40238 26-635): T1 sequence (P40238 26-635 F104S) with S79F

[11] = animal studies; cited from earlier work
[12] = 73 healthy volunteers, higher doses; cited from earlier work

In the case of `CC1=NN(c2ccc(C)c(C)c2)C(=O)/C1=N\Nc1cccc(-c2cccc(C(=O)O)c2)c1O` [Eltrombopag], the “growth response compared with IL-2” value ([1]; TpoR engrafted primary human T-cells, absence of IL-2) was “not as great as those seen towards IL-2”, the “response in relative increase of cell number as concentration increases” value ([1]; varying concentrations, three and five days) was “dose dependent responses” and the “enrichment of TpoR+ cells with varying concentrations” value [2] was “very little difference in the enrichment”. The “enrichment of transduced cells” value [3] was “able to support the enrichment of transduced cells”, the “enrichment of transduced cells” value [4] was “able to support the enrichment of transduced cells” and the “functional activity (enrichment of transduced cells)” value [5] was “functional activity”. The “functional activity (enrichment of transduced cells)” value [6] was “less robust responses”, the “preferential enrichment of TpoR+ T-cells” value [7] was “induced preferential enrichment” and the “preferential enrichment of TpoR+ T-cells” value [8] was “induced preferential enrichment”. For the same compound, the “enrichment of rGFR+ T-cells compared to WT or F104S” value [9] was “Eltrombopag induced enrichment but the effect was not as pronounced”, the “enrichment of rGFR+ T-cells compared to WT or F104S” value [10] was “Eltrombopag induced enrichment but the effect was not as pronounced” and the “effect of the F104S extracellular point mutation on responsiveness to the ligand” value (TpoR F104S) was “but not Eltrombopag”. For the same compound, the receptor selectivity (thrombopoietin receptor) was “interact selectively with the thrombopoietin receptor”, the platelet counts [11] was “could increase platelet counts” and the “number of circulating platelets” value [12] was “larger increases in the number of circulating platelets”.
